According to PMC7819943, “Rice protein-binding microarrays: a tool to detect cis-acting elements near promoter regions in rice”:
Some of the results follow.

Chains of the proteins cited; added tags and fusions are not shown.
UniProt Q0JBA9, entry or part of it: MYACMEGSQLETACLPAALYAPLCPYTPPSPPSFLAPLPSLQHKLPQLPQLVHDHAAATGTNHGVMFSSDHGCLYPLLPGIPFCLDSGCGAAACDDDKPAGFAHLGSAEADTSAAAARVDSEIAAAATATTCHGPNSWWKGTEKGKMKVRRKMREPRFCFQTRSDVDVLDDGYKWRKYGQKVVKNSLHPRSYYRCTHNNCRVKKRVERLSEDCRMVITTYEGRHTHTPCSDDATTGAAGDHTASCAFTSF

What follows are sequences tested against OsWRKY34 (Oryza sativa, UniProt Q0JBA9 1-250) (assay: protein-binding microarray (RPBM); PBS, 2% BSA, 51.3 ng/ul salmon testes DNA, 50 uM zinc acetate, 200 nM TF, 25 C, 1 h; high values mean tight binding). Settings: protein: recombinant; tags: N-terminal polyhistidine and DsRed monomer fusion (pET32a); label: CyDye5-dUTP incorporated in the synthesized complementary strand; 3' TTTTT single-stranded linker to array surface; dsDNA, one strand shown.
How it was run: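 The binding signal for each feature is its fluorescence intensity in arbitrary units. An Axon 4000B scanner was used to read a custom Agilent array that had been made double-stranded with Cy5-dUTP primer extension, blocked with 2% BSA, incubated at 25 °C for 1 h with 200 nM protein in PBS, 2% BSA, salmon testes DNA and 50 µM zinc acetate, and washed. The protein was an N-terminal polyhistidine–DsRed transcription factor fusion from E. coli BL21-CodonPlus, purified on Ni–NTA.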

Sequence | binding signal
GCCGTCAATCGTGGCAGCCAATCGTTTCGTCGTTCGTCCACGGAGTCACCTAGTGCAG | 8150 fluorescence intensity (a.u.)
GCCCACATGCCAGCCACTGCCACCGGCCGCCTTCCGAGCCCGGAGTCACCTAGTGCAG | 8970 fluorescence intensity (a.u.)
TATACTTGTTGGCTGCTGCTTTGTGTGTGGTGTGTTGTTTCGGAGTCACCTAGTGCAG | 10400 fluorescence intensity (a.u.)
TCGTGTCTCGGTATATCAGAATCTCCTACAACGTTCTCGACGGAGTCACCTAGTGCAG | 8640 fluorescence intensity (a.u.)
ATCCACACACCGCTTGATTTCAGTCGCAAAAGGCTTCAGTCGGAGTCACCTAGTGCAG | 8720 fluorescence intensity (a.u.)
TCTTCCACTTCATCTTCTTCCATTTCAACACCTTGCTCCTCGGAGTCACCTAGTGCAG | 8310 fluorescence intensity (a.u.)
CTCGCCGTCTGCTCCTCTGATCGGCCTCCTCAGTTGACACCGGAGTCACCTAGTGCAG | 9980 fluorescence intensity (a.u.)
CCCATCAACCGCCAAAGACTTCCCGCGCGCGTCTACATATCGGAGTCACCTAGTGCAG | 8450 fluorescence intensity (a.u.)
GCTGCACTTTTGCATCATTTTGCCTGCATTCTTATGTCCGCGGAGTCACCTAGTGCAG | 8140 fluorescence intensity (a.u.)
TCTCAACGACACGACGACATCCGCTTGTATTTCTTTCGTTCGGAGTCACCTAGTGCAG | 10500 fluorescence intensity (a.u.)
TTCCCAACAAATCACAATCCTCCACCATTCACTTTTCCCACGGAGTCACCTAGTGCAG | 8420 fluorescence intensity (a.u.)
TGGCGTCGCGTCTTTTGGGGATATATTGGGAGTGTATAGTCGGAGTCACCTAGTGCAG | 8590 fluorescence intensity (a.u.)
ACACACGAGGAGATGCCGCTTTATTGTTGACATGTCATTTCGGAGTCACCTAGTGCAG | 10100 fluorescence intensity (a.u.)
TCATTTCTGTGTGTGTTTTGGAGGTGGGTGAGGGTCTGTTCGGAGTCACCTAGTGCAG | 9920 fluorescence intensity (a.u.)
ATTTCGGCTGTGTTCGTTTGGACGTTTTCCCGTCGCGCTACGGAGTCACCTAGTGCAG | 8030 fluorescence intensity (a.u.)
CACCCGTCATCATCACTCTCGCCGCGCTGTCCGCTTCTCGCGGAGTCACCTAGTGCAG | 11700 fluorescence intensity (a.u.)
ATTCCTATGTTTTCTCGTTCCTGCTATTCAATGAGGCCCTCGGAGTCACCTAGTGCAG | 8960 fluorescence intensity (a.u.)
TGATTCCACGCGAGTCGTCTTCTTCTTCTTCTTCTTCTTCCGGAGTCACCTAGTGCAG | 8700 fluorescence intensity (a.u.)
AATTTGACATACTTTCTTAATACCTAGAGTCTAATTTTTTCGGAGTCACCTAGTGCAG | 8320 fluorescence intensity (a.u.)
CATCATGTGCCTTTATCTCTTTTAATTTCTATGTTTTTCTCGGAGTCACCTAGTGCAG | 9740 fluorescence intensity (a.u.)
GCAGCAGATTCCTTGCGTCTCCCGATCCGCGCAAAGCGGCCGGAGTCACCTAGTGCAG | 8400 fluorescence intensity (a.u.)
CTTGGTTCGATTTGAGATCTTGATAGACTGTGGCGGCGATCGGAGTCACCTAGTGCAG | 8380 fluorescence intensity (a.u.)
TTCCCACCCCGCTCGTCGGCCTCCCTACTAACTTCAGCTTCGGAGTCACCTAGTGCAG | 8540 fluorescence intensity (a.u.)
TATGCCTATAAATTCAAGCTTATTGTTTCATTTTTTATGCCGGAGTCACCTAGTGCAG | 8350 fluorescence intensity (a.u.)
TTTTCTTCTGCTTTCTGAAATTAAGTGTTTCGTGTCATGTCGGAGTCACCTAGTGCAG | 9160 fluorescence intensity (a.u.)
TCCATTGTATCTGTACCGCCTCCGCCTCCCCATCGCGCAGCGGAGTCACCTAGTGCAG | 8470 fluorescence intensity (a.u.)
TCTTGCCATCTAGATCTCAGGATATTGCTCCACCTAAACTCGGAGTCACCTAGTGCAG | 13100 fluorescence intensity (a.u.)

Some of the entries above in another layout:
Sequence	binding signal
TCTTCCACTTCATCTTCTTCCATTTCAACACCTTGCTCCTCGGAGTCACCTAGTGCAG	8310 fluorescence intensity (a.u.)
CTCGCCGTCTGCTCCTCTGATCGGCCTCCTCAGTTGACACCGGAGTCACCTAGTGCAG	9980 fluorescence intensity (a.u.)
CCCATCAACCGCCAAAGACTTCCCGCGCGCGTCTACATATCGGAGTCACCTAGTGCAG	8450 fluorescence intensity (a.u.)

Remaining list, next part.

Sequence | binding signal
GCTCGTCCGCGACCGCCGCCGCCGCCGCCACCTCTACCACCGGAGTCACCTAGTGCAG | 8460 fluorescence intensity (a.u.)
CCTCTCCCTACTACTGTCGTATCGTCTCCTACCTCGCCTCCGGAGTCACCTAGTGCAG | 8340 fluorescence intensity (a.u.)
TCGCAATTTACATACAAACCGTGCAATTGGTTTTTTCGTCCGGAGTCACCTAGTGCAG | 9900 fluorescence intensity (a.u.)
TGTCACATTCCAGTCCATGCCCTCTCCCAGATCGACTTGTCGGAGTCACCTAGTGCAG | 8950 fluorescence intensity (a.u.)
AACGATTTGCATGTCATACAGATACATCACATTTCTTTCTCGGAGTCACCTAGTGCAG | 8520 fluorescence intensity (a.u.)
CCTCCACCCCACCACCACCACCACCTCGCCGCCGACGTCGCGGAGTCACCTAGTGCAG | 10100 fluorescence intensity (a.u.)
TACACCACCCTTTCATCTACTTGCATGGTTGCACCACTATCGGAGTCACCTAGTGCAG | 10200 fluorescence intensity (a.u.)
GGGGTTGCGGAAGAGGTGGAGGCTGCGGCGGACATCGTCGCGGAGTCACCTAGTGCAG | 8120 fluorescence intensity (a.u.)
ATCCTCTTCTTCCTCTCCGGCCGCCTCCTTCCTCACCATGCGGAGTCACCTAGTGCAG | 10800 fluorescence intensity (a.u.)
ATGCACCAACCGATCCAGTCCAGAGACATCCACACATTCGCGGAGTCACCTAGTGCAG | 8410 fluorescence intensity (a.u.)
CATGTTCTTTTTTTTTACATAGAGTAATATTTGGTTTGTACGGAGTCACCTAGTGCAG | 8500 fluorescence intensity (a.u.)
TTTTCTTCTTTTTTTCTTATTTATTCACTTGCCACATTATCGGAGTCACCTAGTGCAG | 10400 fluorescence intensity (a.u.)
CCTCAATCCACGCACGTTAGCAATAGGGTTCTTTCATTTTCGGAGTCACCTAGTGCAG | 8580 fluorescence intensity (a.u.)
GCAAACATGCCACCTCATCATCCACTAGCAATAATTACATCGGAGTCACCTAGTGCAG | 8440 fluorescence intensity (a.u.)
TTTTCTTTCTCCCGTGCCTGTTCTTTTCTTTCTTGCAAGCCGGAGTCACCTAGTGCAG | 9300 fluorescence intensity (a.u.)
TGTTCATCTCTGCACCACCATTAGCTAGTTGGTTTCTCGACGGAGTCACCTAGTGCAG | 10000 fluorescence intensity (a.u.)
CGGTCGTACTCCGTCCTGCATCCACCCAACACAAACCAATCGGAGTCACCTAGTGCAG | 9830 fluorescence intensity (a.u.)
CCCCACCCCACTACTCCTCTCCACCGCCATCATTGTCGGCCGGAGTCACCTAGTGCAG | 9210 fluorescence intensity (a.u.)
GATCGCTCCATAAACATGCAATATATCAATTTTAACTTTTCGGAGTCACCTAGTGCAG | 8900 fluorescence intensity (a.u.)
ATCGACATGTTCCGCTCACCGTGGGTTCTATCAAGGCCTACGGAGTCACCTAGTGCAG | 8030 fluorescence intensity (a.u.)
GCCTGCCTGTCTGCCTCCGCGTCTTTTCTGCTGCCCACATCGGAGTCACCTAGTGCAG | 19500 fluorescence intensity (a.u.)
CCTTCTCGTCCATTTTCCCACTACACCACAAAATCCAGGTCGGAGTCACCTAGTGCAG | 9300 fluorescence intensity (a.u.)
CGCAGTCCGAAGTTGATTTTTTTTTTTTTTACGGAGTACTCGGAGTCACCTAGTGCAG | 8250 fluorescence intensity (a.u.)
TTTTGCTTTCTACATAATTGTGTGCCATTAATTTTATTTTCGGAGTCACCTAGTGCAG | 9200 fluorescence intensity (a.u.)
CCGGCTCAGTGTTCTGGAGGGGTAGGGTGTGCGTTCATAGCGGAGTCACCTAGTGCAG | 13000 fluorescence intensity (a.u.)
ACTCGATCCAAACACAAGAAGTTCCATGCATGTTAATCGACGGAGTCACCTAGTGCAG | 8570 fluorescence intensity (a.u.)
ATTGAAATGGTTGACGTCGTTTTATTTTTTTTGTTACTTTCGGAGTCACCTAGTGCAG | 8740 fluorescence intensity (a.u.)
